Test results taken from the supplement of paper PMC10849652.
The other results are listed elsewhere or left out.

Sequences of proteins named here, by UniProt entry; tags and fusion partners are left off. A change or cut given only in a name is not applied to a line headed by its entry.
UniProt O75880: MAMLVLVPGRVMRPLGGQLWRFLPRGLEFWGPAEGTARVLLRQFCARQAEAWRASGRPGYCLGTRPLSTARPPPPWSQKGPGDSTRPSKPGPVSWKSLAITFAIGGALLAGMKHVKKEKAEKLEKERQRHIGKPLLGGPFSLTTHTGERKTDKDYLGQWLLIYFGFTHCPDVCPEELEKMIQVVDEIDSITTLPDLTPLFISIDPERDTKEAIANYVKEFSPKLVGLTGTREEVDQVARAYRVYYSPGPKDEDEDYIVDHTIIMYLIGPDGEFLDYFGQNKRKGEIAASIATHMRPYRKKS
UniProt Q13228: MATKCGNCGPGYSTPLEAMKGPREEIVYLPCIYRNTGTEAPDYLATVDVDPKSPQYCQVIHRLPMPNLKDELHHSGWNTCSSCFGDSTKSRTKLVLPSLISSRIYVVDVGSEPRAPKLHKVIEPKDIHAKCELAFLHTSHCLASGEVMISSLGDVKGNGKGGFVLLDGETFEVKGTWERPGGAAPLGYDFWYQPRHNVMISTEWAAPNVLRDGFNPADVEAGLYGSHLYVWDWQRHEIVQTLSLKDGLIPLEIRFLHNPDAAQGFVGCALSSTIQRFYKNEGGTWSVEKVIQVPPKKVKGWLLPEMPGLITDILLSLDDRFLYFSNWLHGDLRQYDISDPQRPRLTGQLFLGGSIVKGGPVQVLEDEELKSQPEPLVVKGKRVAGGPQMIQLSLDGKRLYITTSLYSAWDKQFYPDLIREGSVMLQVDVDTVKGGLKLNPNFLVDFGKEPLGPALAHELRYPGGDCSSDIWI
UniProt O00422: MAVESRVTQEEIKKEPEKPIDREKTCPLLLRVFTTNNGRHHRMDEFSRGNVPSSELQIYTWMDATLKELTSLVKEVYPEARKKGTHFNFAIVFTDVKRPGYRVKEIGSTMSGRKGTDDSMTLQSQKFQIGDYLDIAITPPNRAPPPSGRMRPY
UniProt Q14141: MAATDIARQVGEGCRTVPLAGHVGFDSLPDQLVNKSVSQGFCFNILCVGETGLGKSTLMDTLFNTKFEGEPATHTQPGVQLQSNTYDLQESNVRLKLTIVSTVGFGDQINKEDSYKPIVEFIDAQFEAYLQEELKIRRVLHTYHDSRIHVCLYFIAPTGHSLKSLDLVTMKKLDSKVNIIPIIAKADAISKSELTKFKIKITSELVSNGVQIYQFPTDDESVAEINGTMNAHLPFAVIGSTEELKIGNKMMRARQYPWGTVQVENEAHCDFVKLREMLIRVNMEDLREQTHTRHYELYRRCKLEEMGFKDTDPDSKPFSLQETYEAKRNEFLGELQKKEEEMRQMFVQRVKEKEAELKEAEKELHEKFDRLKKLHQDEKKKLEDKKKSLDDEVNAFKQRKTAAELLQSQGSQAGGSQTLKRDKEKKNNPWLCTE
UniProt Q99643: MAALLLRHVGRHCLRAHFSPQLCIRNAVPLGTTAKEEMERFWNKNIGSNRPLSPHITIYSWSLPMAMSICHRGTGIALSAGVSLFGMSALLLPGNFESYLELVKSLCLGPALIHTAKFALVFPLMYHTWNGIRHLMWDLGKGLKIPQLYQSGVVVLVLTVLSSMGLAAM

Experiments:
Assay in all cases: log2 fold change, soluble protein after heating vs DMSO (PISA); higher = thermal stabilisation; K562 lysate, 10 uM; active = over 0.2 and 3.5 SD of the protein, either way, in both replicates (recomputed)
[1] = compound: C1=CC=C(C=C1)[C@H](COC2=CC3=C(C=C2)NC(=O)N3)NC(=O)C4=CC=CN(C4=O)CC5=CC(=C(C=C5)F)F
Outline: (§1)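 Log-two fold change in thermal stability relative to solvent controls is reported from duplicates. For each sample, crude K562 extract from dounce-homogenised pellets in PBS pH 7.4 with 1 mM MgCl2, at 1 mg/mL protein, was treated with 10 μM compound for 30 min. Aliquots heated for 3 min across 48°C-58°C were pooled, brought to 0.5% NP-40 at 4°C and cleared at 21,000xg for 90 min. The supernatant was quantified by TMTpro 16plex LC-MS/MS with channel sums equalised.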

[2] = compound: CC1=C(SC2=C1C(=N[C@H](C3=NN=C(N32)C)CC(=O)N)C4=CC=C(C=C4)Cl)C
Outline: as §1

[3] = compound: CC1=C2C(=CC=C1)N=C(N(C2=O)C3=CC=CC=C3C)CN4C=NC5=C(N=CN=C54)N
Outline: as §1

[4] = compound: Cc1sc2c(c1C)C(c1ccc(Cl)cc1)=N[C@@H](CC(=O)OC(C)(C)C)c1nnc(C)n1-2
Outline: as §1

[5] = compound: c1ccc([C@@H]2C[C@H]2NC2CCNCC2)cc1
Outline: as §1

[6] = compound: C#Cc1cccc(Nc2ncnc3cc(OCCOC)c(OCCOC)cc23)c1 [erlotinib]
Outline: as §1

[7] = compound: C1=CC(=CC=C1C2=NC3=C(N2)C=C(C=C3)C(=O)N)OC4=CC=C(C=C4)Cl
Outline: as §1

[8] = compound: C1=CC2=NC=CN=C2C=C1/C=C/3\C(=O)NC(=O)S3
Outline: as §1

[9] = compound: C1=CC=C(C=C1)C2=NC(=C(N2)C3=CC=NC=C3)C4=CC(=C(C=C4)Cl)O
Outline: as §1

[10] = compound: C1COCCN1CCN2C3=CC=CC=C3N=C2NC(=O)C4=CC(=CC=C4)[N+](=O)[O-] [IRAK-1-4 Inhibitor I]
Outline: as §1

[11] = compound: C=CC(=O)N1CCC[C@@H](n2nc(-c3ccc(Oc4ccccc4)cc3)c3c(N)ncnc32)C1 [ibrutinib]
Outline: as §1

[12] = compound: CC(=O)c1cnc2ccc(-c3cc(Cl)c(O)c(Cl)c3)nc2c1N[C@H]1CC[C@H](CN(C)C)CC1
Outline: as §1

[13] = compound: CC(C)(C)Cn1c(N)nc2ccc(-c3[nH]c(C(C)(C)C)nc3-c3ccc(F)cc3)nc21 [ralimetinib]
Outline: as §1

[14] = compound: CC(C)(O)CC(=O)NCCn1ccc2ncnc(Nc3ccc(Oc4cccc(C(F)(F)F)c4)c(Cl)c3)c21
Outline: as §1

[15] = compound: CC(C)C1=C2N=C(C=C(N2N=C1)NCC3=CC=CC=C3)NCCCCCCN
Outline: as §1

[16] = compound: CC1=C(C(CC(=O)N1)C2=CC=C(C=C2)C(F)(F)F)C(=O)NC3=C(C=C4C(=C3)C=NN4)F
Outline: as §1

[17] = compound: CC1=C(C2=C(C=C1)C(=O)C3=CC=CC=C3N2CCCN)C
Outline: as §1

[18] = compound: CC1=C(C=C(C=C1)NC(=O)C2=CC(=CC=C2)N(C)C)NC(=O)C3=CC=C(C=C3)O
Outline: as §1

[19] = compound: CC1=CC=C(C=C1)SC2=C3C=C(SC3=CN=C2)C(=O)N
Outline: as §1

[20] = compound: CCCS(=O)(=O)Nc1ccc(F)c(C(=O)c2c[nH]c3ncc(Cl)cc23)c1F
Outline: as §1

[21] = compound: CCN(CCCOc1ccc2c(Nc3cc(CC(=O)Nc4cccc(F)c4)[nH]n3)ncnc2c1)CCOP(=O)(O)O [barasertib]
Outline: as §1

[22] = compound: CC[C@@H]1C(=O)N(C)c2cnc(Nc3ccc(C(=O)N[C@H]4CC[C@H](N5CCN(CC6CC6)CC5)CC4)cc3OC)nc2N1C(C)C [volasertib]
Outline: as §1

[23] = compound: CCn1c(C(=O)N(C2CC2)C2CC2)cc2c3c(ncn3C)c(Nc3cc(C)n(C)n3)nc21
Outline: as §1

[24] = compound: CCn1cc(-c2ccnc3[nH]c(-c4cccc(CN(C)C)c4)cc23)c(-c2ccc(NC(=O)N(C)C)cc2)n1
Outline: as §1

[25] = compound: CN1CCC(CNc2ccc3ncc(-c4cccc(OC(F)(F)F)c4)n3n2)CC1
Outline: as §1

[26] = compound: CN1CCN(CCOc2cc(OC3CCOCC3)c3c(Nc4c(Cl)ccc5c4OCO5)ncnc3c2)CC1 [saracatinib]
Outline: as §1

[27] = compound: CN1CC[C@H](c2c(O)cc(O)c3c(=O)cc(-c4ccccc4Cl)oc23)[C@H](O)C1 [alvocidib]
Outline: as §1

[28] = compound: CN1CCc2c(c3ccccc3n2Cc2ccc(C(=O)NO)cc2)C1 [Tubastatin A]
Outline: as §1

[29] = compound: CNC(=O)C1=CC=CC=C1NC2=NC(=NC=C2Cl)NC3=C(C=C(C=C3)N4CCOCC4)OC
Outline: as §1

[30] = compound: CNc1nc(-c2ccc3c(N)n[nH]c3c2)cc(N2C[C@@H](C(=O)NC3CCCCC3)CC[C@H]2C)n1
Outline: as §1

[31] = compound: COc1cc(Nc2ncc3c(n2)-c2ccc(Cl)cc2C(c2c(F)cccc2OC)=NC3)ccc1C(=O)O [alisertib]
Outline: as §1

[32] = compound: COc1cc2nc(-c3cc(F)ccc3O)nc(N[C@@H]3CNC[C@H]3C(C)(C)O)c2cc1OC
Outline: as §1

[33] = compound: COc1cc2ncnc(Nc3ccc(F)c(Cl)c3)c2cc1OCCCN1CCOCC1 [gefitinib]
Outline: as §1

[34] = compound: CS(=O)(=O)CCNCc1ccc(-c2ccc3ncnc(Nc4ccc(OCc5cccc(F)c5)c(Cl)c4)c3c2)o1 [lapatinib]
Outline: as §1

[35] = compound: CS(=O)(=O)N1CCN(Cc2cc3nc(-c4cccc5[nH]ncc45)nc(N4CCOCC4)c3s2)CC1 [pictilisib]
Outline: as §1

[36] = compound: C[C@H](C1=CC=C(C=C1)C(=O)NC2=C3C=CNC3=NC=C2)N
Outline: as §1

[37] = compound: C[C@H](Nc1ncnc2nc[nH]c12)c1cc2cccc(Cl)c2c(=O)n1-c1ccccc1 [duvelisib]
Outline: as §1

[38] = compound: Cc1cc(Nc2cc(CN3CCOCC3)c3nc(C)c(Cc4ccc(Cl)cc4F)n3n2)n[nH]1 [gandotinib]
Outline: as §1

[39] = compound: Cc1ccc(NC(=O)c2ccc(CN3CC[C@H](N(C)C)C3)c(C(F)(F)F)c2)cc1Nc1nccc(-c2cncnc2)n1 [bafetinib]
Outline: as §1

[40] = compound: Cc1cccc(CC(=O)N2CCc3c2ccc(-c2cn(C)c4ncnc(N)c24)c3F)n1
Outline: as §1

[41] = compound: Cc1cn(-c2cc(NC(=O)c3ccc(C)c(Nc4nccc(-c5cccnc5)n4)c3)cc(C(F)(F)F)c2)cn1 [nilotinib]
Outline: as §1

[42] = compound: Cc1nc(Nc2n[nH]c3c2CN(C(=O)N[C@H](CN(C)C)c2ccccc2)C3(C)C)c2sccc2n1
Outline: as §1

[43] = compound: Cc1nc(Nc2ncc(C(=O)Nc3c(C)cccc3Cl)s2)cc(N2CCN(CCO)CC2)n1 [dasatinib]
Outline: as §1

[44] = compound: Cc1ncc(-c2ccnc(Nc3ccc(S(C)(=O)=O)cc3)n2)n1C(C)C
Outline: as §1

[45] = compound: Cn1cc(-c2ccc3c(c2)CCN3C(=O)Cc2cccc(C(F)(F)F)c2)c2c(N)ncnc21
Outline: as §1

[46] = compound: Cn1cncc1[C@@](N)(c1ccc(Cl)cc1)c1ccc2c(c1)c(-c1cccc(Cl)c1)cc(=O)n2C [tipifarnib]
Outline: as §1

[47] = compound: NC(=O)c1cnc(N[C@@H]2CCCC[C@@H]2N)nc1Nc1cccc(-n2nccn2)c1
Outline: as §1

[48] = compound: NC1(c2ccc(-c3nc4ccn5c(=O)[nH]nc5c4cc3-c3ccccc3)cc2)CCC1
Outline: as §1

[49] = compound: O=C(CCCCCCC(=O)Nc1ccccc1)NO [vorinostat]
Outline: as §1

[50] = compound: O=C(O)c1ccc2c(c1)nc(Nc1cccc(Cl)c1)c1ccncc12 [silmitasertib]
Outline: as §1

Measured: log2 fold change

SCO1 (UniProt O75880)
inactive: [1] -0.021 | [2] 0.017 | [3] 0 | [4] 0.136 | [5] -0.027

SARS1 (UniProt Q5T5C7)
inactive: [6] -0.008 | [7] -0.061 | [8] -0.014 | [9] 0.282 | [1] -0.091 | [10] -0.062 | [11] 0.026 | [12] 0.006 | [13] 0.014 | [14] 0.041 | [15] -0.095 | [16] -0.008 | [17] 0.022 | [18] -0.167 | [2] 0.141 | [19] 0.032 | [20] 0.032 | [21] 0.006 | [22] -0.076 | [23] 0.136 | [24] 0.072 | [25] -0.041 | [26] -0.243 | [27] 0.082 | [28] 0.211 | [29] -0.063 | [30] -0.074 | [31] -0.172 | [32] -0.066 | [33] -0.093 | [34] -0.012 | [35] -0.103 | [36] 0.194 | [37] 0.143 | [38] 0.036 | [39] -0.014 | [40] -0.162 | [41] 0.411 | [42] 0.097 | [43] -0.001 | [44] -0.29 | [4] 0.024 | [45] 0.105 | [46] -0.095 | [47] -0.034 | [48] 0.123 | [49] -0.14 | [50] 0.132 | [5] -0.036

SELENBP1 isoform 4 (UniProt Q13228)
inactive: [1] 0.014 | [2] -0.006 | [3] 0.014 | [4] 0.019 | [5] 0.025

SAP18 isoform 2 (UniProt O00422)
inactive: [1] -0.012 | [2] 0.049 | [3] 0.008 | [4] 0.036 | [5] -0.035

SEPTIN6 (UniProt Q14141)
inactive: [1] -0.01 | [2] -0.029 | [3] -0.011 | [4] 0.042 | [5] 0.036

SDHC (UniProt Q99643)
inactive: [1] -0.045 | [2] -0.016 | [3] 0.035 | [4] -0.085 | [5] -0.09
